The record followed here is PMC11602137.

Chains of the proteins cited; added tags and fusions are not shown.
UniProt Q9UL03: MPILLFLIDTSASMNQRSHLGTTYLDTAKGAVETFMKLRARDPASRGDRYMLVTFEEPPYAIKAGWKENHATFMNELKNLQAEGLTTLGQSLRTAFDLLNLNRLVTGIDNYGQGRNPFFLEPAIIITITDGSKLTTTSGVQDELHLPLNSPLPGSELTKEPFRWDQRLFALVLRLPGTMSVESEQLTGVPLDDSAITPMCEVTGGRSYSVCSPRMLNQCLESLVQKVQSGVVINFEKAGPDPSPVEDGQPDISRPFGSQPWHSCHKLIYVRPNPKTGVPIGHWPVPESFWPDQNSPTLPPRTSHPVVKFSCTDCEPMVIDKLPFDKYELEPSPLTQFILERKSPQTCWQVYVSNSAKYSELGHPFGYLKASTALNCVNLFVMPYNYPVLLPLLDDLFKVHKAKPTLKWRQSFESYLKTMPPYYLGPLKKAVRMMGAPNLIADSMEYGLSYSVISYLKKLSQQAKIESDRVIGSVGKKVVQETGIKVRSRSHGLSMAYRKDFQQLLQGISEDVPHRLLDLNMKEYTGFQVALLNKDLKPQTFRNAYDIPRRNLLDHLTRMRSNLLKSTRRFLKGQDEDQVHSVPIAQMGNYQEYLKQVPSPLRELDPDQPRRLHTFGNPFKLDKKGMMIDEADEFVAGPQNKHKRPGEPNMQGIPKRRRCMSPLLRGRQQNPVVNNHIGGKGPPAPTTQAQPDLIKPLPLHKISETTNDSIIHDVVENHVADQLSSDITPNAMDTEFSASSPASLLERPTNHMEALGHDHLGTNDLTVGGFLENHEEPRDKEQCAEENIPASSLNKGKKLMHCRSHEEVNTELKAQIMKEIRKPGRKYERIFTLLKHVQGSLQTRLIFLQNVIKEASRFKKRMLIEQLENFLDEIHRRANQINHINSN
UniProt Q7Z333: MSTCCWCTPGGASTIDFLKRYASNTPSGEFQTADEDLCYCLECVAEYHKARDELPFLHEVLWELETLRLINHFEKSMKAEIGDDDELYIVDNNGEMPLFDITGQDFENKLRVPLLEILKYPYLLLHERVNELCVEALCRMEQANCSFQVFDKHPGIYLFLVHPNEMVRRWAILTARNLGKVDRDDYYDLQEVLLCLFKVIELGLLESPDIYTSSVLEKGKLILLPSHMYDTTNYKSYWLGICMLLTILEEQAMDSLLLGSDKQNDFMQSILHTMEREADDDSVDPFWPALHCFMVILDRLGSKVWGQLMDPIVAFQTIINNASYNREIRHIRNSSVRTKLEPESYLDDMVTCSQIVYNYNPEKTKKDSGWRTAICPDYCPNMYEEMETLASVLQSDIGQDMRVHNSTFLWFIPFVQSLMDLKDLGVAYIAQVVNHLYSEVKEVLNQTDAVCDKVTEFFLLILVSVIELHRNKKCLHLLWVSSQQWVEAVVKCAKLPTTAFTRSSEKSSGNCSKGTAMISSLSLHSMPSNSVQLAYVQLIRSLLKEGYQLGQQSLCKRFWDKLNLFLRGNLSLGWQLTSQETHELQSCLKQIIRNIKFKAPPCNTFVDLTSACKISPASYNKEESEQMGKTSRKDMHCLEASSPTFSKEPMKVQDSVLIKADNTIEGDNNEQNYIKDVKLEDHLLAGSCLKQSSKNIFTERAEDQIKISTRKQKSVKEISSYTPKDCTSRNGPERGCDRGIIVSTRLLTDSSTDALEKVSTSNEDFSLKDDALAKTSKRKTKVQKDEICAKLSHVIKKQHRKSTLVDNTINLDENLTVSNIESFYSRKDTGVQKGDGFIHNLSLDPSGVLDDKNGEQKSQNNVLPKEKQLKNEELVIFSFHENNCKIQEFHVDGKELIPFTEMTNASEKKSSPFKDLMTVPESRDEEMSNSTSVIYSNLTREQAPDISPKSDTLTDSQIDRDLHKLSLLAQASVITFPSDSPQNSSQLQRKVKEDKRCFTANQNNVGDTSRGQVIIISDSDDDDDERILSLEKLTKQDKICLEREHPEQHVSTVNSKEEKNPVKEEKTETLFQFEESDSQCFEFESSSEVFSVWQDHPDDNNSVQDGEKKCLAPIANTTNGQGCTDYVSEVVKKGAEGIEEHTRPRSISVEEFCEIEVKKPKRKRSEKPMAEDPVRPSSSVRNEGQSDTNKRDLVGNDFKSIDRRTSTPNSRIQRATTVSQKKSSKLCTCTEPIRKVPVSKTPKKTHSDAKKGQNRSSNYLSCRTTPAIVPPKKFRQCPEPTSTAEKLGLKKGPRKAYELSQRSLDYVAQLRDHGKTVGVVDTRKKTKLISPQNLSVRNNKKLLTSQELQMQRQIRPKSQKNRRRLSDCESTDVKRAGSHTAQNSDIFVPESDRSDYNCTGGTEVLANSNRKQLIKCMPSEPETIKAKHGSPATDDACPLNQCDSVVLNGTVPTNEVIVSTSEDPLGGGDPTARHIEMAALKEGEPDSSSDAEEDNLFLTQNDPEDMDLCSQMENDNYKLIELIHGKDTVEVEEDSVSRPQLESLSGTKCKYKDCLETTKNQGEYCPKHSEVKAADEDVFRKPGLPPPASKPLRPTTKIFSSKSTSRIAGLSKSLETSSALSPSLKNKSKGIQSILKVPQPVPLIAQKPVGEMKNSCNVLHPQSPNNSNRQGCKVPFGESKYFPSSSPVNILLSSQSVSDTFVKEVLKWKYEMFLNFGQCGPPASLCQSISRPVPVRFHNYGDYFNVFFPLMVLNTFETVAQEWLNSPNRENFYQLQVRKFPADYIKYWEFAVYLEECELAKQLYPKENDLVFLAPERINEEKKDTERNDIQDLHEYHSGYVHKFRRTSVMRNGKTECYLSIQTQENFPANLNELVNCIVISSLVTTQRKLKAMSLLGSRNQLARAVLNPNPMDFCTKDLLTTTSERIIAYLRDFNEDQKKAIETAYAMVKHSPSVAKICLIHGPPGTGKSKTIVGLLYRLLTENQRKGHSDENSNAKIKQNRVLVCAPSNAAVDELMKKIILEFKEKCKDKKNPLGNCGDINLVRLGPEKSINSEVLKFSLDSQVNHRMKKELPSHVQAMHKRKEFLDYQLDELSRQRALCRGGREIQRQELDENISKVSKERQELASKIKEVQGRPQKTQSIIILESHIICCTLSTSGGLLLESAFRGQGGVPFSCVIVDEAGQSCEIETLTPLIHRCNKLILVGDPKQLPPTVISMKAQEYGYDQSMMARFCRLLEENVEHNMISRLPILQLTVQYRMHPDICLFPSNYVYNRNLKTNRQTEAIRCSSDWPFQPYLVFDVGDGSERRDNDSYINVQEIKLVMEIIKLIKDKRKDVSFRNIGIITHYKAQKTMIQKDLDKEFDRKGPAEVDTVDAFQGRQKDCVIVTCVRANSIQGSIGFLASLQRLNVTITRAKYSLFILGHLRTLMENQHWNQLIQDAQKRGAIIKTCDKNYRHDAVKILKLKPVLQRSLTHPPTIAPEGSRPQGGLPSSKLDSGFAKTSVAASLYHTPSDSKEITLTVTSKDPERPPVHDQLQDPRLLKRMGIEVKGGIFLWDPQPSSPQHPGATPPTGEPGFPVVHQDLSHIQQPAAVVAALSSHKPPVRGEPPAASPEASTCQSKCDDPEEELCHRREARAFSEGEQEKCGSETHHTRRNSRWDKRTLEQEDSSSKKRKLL
UniProt Q68E01: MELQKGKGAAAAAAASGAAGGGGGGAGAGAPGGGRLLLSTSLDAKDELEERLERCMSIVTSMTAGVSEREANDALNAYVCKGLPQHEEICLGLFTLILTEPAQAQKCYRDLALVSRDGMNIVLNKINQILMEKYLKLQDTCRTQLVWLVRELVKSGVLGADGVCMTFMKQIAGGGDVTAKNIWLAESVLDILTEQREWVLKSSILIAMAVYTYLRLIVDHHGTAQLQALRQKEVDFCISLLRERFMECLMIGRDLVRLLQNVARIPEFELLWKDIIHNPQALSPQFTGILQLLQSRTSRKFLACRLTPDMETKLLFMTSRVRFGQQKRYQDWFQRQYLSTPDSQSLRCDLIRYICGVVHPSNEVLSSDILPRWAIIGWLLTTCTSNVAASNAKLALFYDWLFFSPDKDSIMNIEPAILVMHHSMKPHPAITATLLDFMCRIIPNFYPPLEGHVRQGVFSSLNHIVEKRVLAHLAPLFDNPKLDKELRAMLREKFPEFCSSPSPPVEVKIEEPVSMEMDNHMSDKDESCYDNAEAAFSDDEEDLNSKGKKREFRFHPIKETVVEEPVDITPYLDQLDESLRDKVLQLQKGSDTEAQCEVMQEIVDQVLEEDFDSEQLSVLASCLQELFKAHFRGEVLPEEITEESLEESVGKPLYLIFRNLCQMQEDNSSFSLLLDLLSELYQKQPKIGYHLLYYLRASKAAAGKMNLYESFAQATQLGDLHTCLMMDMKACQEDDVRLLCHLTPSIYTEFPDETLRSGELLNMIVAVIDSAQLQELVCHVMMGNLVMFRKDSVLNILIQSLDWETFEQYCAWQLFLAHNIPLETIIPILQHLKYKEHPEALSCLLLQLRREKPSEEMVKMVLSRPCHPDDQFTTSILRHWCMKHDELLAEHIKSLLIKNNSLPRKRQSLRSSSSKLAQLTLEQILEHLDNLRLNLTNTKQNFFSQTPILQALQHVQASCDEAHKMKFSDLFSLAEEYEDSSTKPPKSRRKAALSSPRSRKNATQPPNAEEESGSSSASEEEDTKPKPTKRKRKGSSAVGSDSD
UniProt Q9BQ15: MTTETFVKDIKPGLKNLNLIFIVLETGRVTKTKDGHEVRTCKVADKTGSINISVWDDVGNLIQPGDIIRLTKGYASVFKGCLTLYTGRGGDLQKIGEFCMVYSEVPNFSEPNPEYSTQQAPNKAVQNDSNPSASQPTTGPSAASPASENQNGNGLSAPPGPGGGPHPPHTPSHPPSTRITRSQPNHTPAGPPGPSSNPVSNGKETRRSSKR

Experiment [1] has as its target Integrator complex subunit 6 (INTS6) (human (endogenous in HeLa or U2OS cells; line not stated for the experiment)) (UniProt Q9UL03). Description: proximity ligation; Duolink in situ PLA on fixed, permeabilised cells with antibodies to the two endogenous proteins; with or without IR (10 Gy, 10 min post-IR); also with DRB, THZ1, INTS6 knock-down or RNaseH1 overexpression.

Experiment [2] has the same target. Description: co-IP; immunoprecipitation of endogenous proteins from benzonase-treated cell lysate (150 mM NaCl, 1% NP40), Protein A/G beads, western blot; with or without IR (10 Gy, 10 min post-IR).
The target in experiment [3] is FLAG-tagged INTS6 (FLAG-INTS6) (UniProt Q9UL03). Briefly: co-IP; anti-FLAG M2 affinity purification from nuclear lysate of HEK293 cells stably expressing FLAG-INTS6 or mock, FLAG-peptide elution, western blot of the eluates.
Experiment [4] concerns the target senataxin (SETX) (human (endogenous in HeLa or U2OS cells, line not stated; endogenous in HEK293)) (UniProt Q7Z333). Description: proximity ligation; Duolink in situ PLA on fixed, permeabilised cells with antibodies to the two endogenous proteins; with or without IR (10 Gy, 10 min post-IR); also with DRB, THZ1, INTS6 knock-down or RNaseH1 overexpression.
For experiment [5] the target is unchanged. Description: co-IP; immunoprecipitation of endogenous proteins from benzonase-treated cell lysate (150 mM NaCl, 1% NP40), Protein A/G beads, western blot; with or without IR (10 Gy, 10 min post-IR).

No constants are given. Whether binding was seen depends on the method and setting. Binding seen in cells or lysates may run through a third protein. Some results given as binding are weak or reduced against the parent protein; the word gives no strength.

With INTS3 (from UniProt Q68E01 1-1043), the binding entry in experiment [1] and in experiment [2] was “binds” throughout.
For the substance “senataxin (SETX) (from UniProt Q7Z333 1-2677)”, the binding entry in experiment [3] is “binds”.
As to “Integrator complex subunit 6 (INTS6) (from UniProt Q9UL03 1-887)”, the binding entry in experiment [4] and in experiment [5] was “binds” in each case.
With “hSSB1 (NABP2) (from UniProt Q9BQ15 1-211)”, the binding entry in experiment [1], in experiment [5] and in experiment [2] was “binds” each time.
